The values below come from US20190338038A1 (CELLERANT THERAPEUTICS, published 2019).

B1: anti-IL1-RAP antibody clone 50.3G7 (antibody, V domains shown)
VH: QIQLVQSGPELKKPGETVKISCKASGYTFTNYGMHWVKQSPGEGLKWMGWINTYTGEPTYADDFKGRFGFSLETSASSAYLQINDLKNEDMATYFCARYYGNFDYWGQGTTLTVSS
VL: DIVLTQSPATLSVTPGDSVSLSCRASQSISNNLHWYQQKSHESPRLLIKYASQSISGIPSRFSGSGSGTDFTLSINSVETEDFGVYFCQQSHNWPHTFGGGTKLEIKR
notes: Mouse monoclonal antibody
B2: anti-IL1-RAP antibody clone 42.1D3 (antibody, V domains shown)
VH: QIQLVQSGPELKKPGETVNISCKASGYTFTDFSMHWVKQAPGKGLQWMGWINTETGEPTYADDFEARFAFSLATSANTAYLKINNLKNEDTATYFCARFFLHFDYWGQGTTLTVSS
VL: DIVLTQSPATLSVTPGDSVSLSCRASQSINNDLHWYQQKSHESPRLLIKYASQSISGIPSRFSGSGSGTDFTLRINSVETEDFRMYFCQQSNNWPLTFGAGTKLEVK
notes: Mouse monoclonal antibody
B3: anti-IL1-RAP antibody clone 46.1D2 (antibody, V domains shown)
VH: QVQLQQSGPELVKPGASVKISCKASGYGFSSSWMNWVKQRPGKGLEWIGRIYPGDGNTNYYGEFKGKATLTADKSSSTAYMQLNSLTSEDSAVYFCARNDGYPAWFTYWGQGTLVTVSA
VL: DIQMTQTTSSLSASLGDRVTISCSASQGISNYLNWYQQKPDGSVKLLIYYTSTLHSGVPSRFSGSGSGTDYSLTISNLEPEDIATYYCQQYSYLPWTFGGGTKLEIK
notes: Mouse monoclonal antibody
B4: 42.3G6 (antibody, V domains shown)
VH: QIQLVQSGPELKKPGETVKISCKASGYTFTDYSMHWVKQAPEKGLKWMGWINTETGEPTYADDFKGRFAFSLETSASTAYLQINNLKNEDTATYFCARGSFPWFTYWGQGTLVTVSA
VL: DIVMTQAAFSNPVTLGTSASISCRSSKSLLHSNGITYLYWYLQKPGQSPQLLIYQMSNLASGVPDRFSSSGSGTDFTLRISRVEAEDVGVYYCAQNLELPFTFGSGTKLEIK
notes: also called anti-IL1-RAP antibody clone 42.3G6
B5: anti-IL1-RAP antibody clone 54.9D7 (antibody, V domains shown)
VH: HVQLQQSGPELVRPGASVKLSCKASGYIFITYWMNWVKQRPGQGLEWVGQIFPASGTTYYNELFEGKATLTVDTSSNTAYMHLTSLTSEDSAVYYCARTDFYRYDGGYALDYWGQGTSLTVSS
VL: DIVLTQSPISLAVFLGQRATISCRASQSVSTSGYSSMHWYQQKAGQPPKLLIKYASDLESGVPVRFSGSGSGTDFILNIHPVEVEDIATYYCHHSWGIPMYTFGGGTKLEIKR
notes: Mouse monoclonal antibody from a hybridoma
B6: 46.8G1 (antibody, V domains shown)
VH: QVQLQQSGPELVKPGASVKISCTASGYAFSTSWMNWVKQRPGKGLEWIGRIYPGDGDSNYNGKFKGKATLTADKSSSTAYMQLSSLTSEDSAVYFCARRDYYGFFDVWGAGTTVTVSS
VL: DIQMTQSPASLSVSVGETVTITCRASENIYSNLVWYQQKQGKSPQLLVYAATNLADGVPSRFSGSGSDTQYSLKINSLQSEDFGSYYCLHFWGPPYMYTFGGGTNLEMKR
notes: also called anti-IL1-RAP antibody clone 46.8G1
B7: anti-IL1-RAP antibody clone 54.15B5 (antibody, V domains shown)
VH: KWSWWSLGGGLAKPGGSLKLSCTASGFTFTSYVMSWVRQSPEKRLEWVAEISRGGSHTYYSDTVTGRFTISRDNANNALYLEMSSVRSADTAMYFCTRAYGNSEMDFWGQGTSVTVSS
VL: QIVLTQSPAIMSASPGEKVTMTCSASSSISYIHWYRQKPGTSPKRWIYDTSNLASGVPARFSGSGSGTSYSLTIINMEAEDAATYYCHQRTYYPLTFGGGTRLELK
notes: Mouse monoclonal antibody
B8: anti-IL1-RAP antibody clone 54.8H8 (antibody, V domains shown)
VH: EVQLVESGGGLVKPGGSLKLSCAASGFSFSSYGMSWVRQSPEKRLEWVAEITSGGSHTYYPDTVTGRFTISRDNAKNTLYLEMSSLRSEDTAMYYCSRSYGNYVMDYWGQGTSVTVSS
VL: QIVLTQSPAIMSASPGEKVTMTCSASSSVIYIYWFQQKPGSSPRLLIYDTSNLASGVPLRFSGSGSGTSYSLTISRMETEDVSTYYCQQWNSYPPTFGGGTKLEIK
notes: Mouse monoclonal antibody
B9: anti-IL1-RAP antibody clone 54.9E9 (antibody, V domains shown)
VH: QIQLVQSGPELKKPGETVKISCKASSYTFTDYSMHWVKQAPGKGLKWMGWINTETGEPRYADDFKGRFAFSLETSASTAYLQINNLKNEDTATYFCARFLLHFDYWGQGTILTVSS
VL: QIVLTQSPAIMSASPGEKVTMTCSASSSVSYMHWYQQKTGTSPKRLIYDTSKLASGVPARFSGSGSGTSYSLTISSMEAEDAATYYCHQRSYYPLTFGAGAKLELK
notes: Mouse monoclonal antibody
B10: anti-IL1-RAP antibody clone 50.6C12 (antibody, V domains shown)
VH: EVQLQQSGPELVKPGDSVKMSCKASGYTFTDYYMDWVKQSHGKSLEWIGYIYPHNGGTTYNQKFKGKATLTVDKSSSTAYMELHSLTSEDSAVYYCARSPFNYKDPMDWWGQGTSVTVSS
VL: DIQMTQSPASLSASVGETVTITCRASGNIHNYLAWYQQKQGKSPHLLVYNAETLADGVPSRFSGSGSGTQYSLKINSLQPEDFGTYYCQHFWSTPWTFGGGTKLEIK
notes: Mouse monoclonal antibody
B11: anti-IL1-RAP antibody clone 56.12G6 (antibody, V domains shown)
VH: RSNYSSLGAELVKPGASVTLSCEASGYTFTSYWIHWVKQRPGQGLEWIGEINPSHGHTTYNEKFKNKATLTVDKSSSTAYMQVSSLTSEDSAVYYCTRHYGSYYFDLWGQGTTLTVSS
VL: QIVLTQSPAIMSAFPGEKVTMTCRASSSVSYMHWYRQKSGTFPKRWIYDTSKLASGVPARFSGSGSGTSYSLTISSMEAEDAATYYCQQWSTNPITFGAGTKLELK
notes: Mouse monoclonal antibody

No constants are given. Whether binding was seen depends on the method and setting. For some of these results: A result given as binding can be weak or reduced; the word gives no strength.

In one assay the target is mIg3. The assay can be described thus: FACS (GeoMean) on 293 cells transiently transfected with the chimeric receptor; antibody concentration not given.
For the molecule B1, the binding result is reported as “binds”.

As for B2, the binding result is “binds”.

For B3, the binding entry is listed as “binds”.

In the case of B4, the binding result is “binds”.

A further assay has as its target mIg2. The assay is described as above.
On to B5, for which the binding entry was “binds”.

Consider B6, for which the binding entry is listed as “binds”.

Consider B7, for which the binding result is on record as “binds”.

Consider B8, for which the binding entry is “binds”.

With B9, the binding entry is given as “binds”.

Take B10: the binding result was “binds”.

B11: the binding result is on record as “binds”.

The target of another assay is mIg3. The assay can be described thus: FACS (GeoMean) on 293 cells transiently transfected with the chimeric receptor.
Consider B5, for which the binding entry was “no binding (tested: not given)”.

Turning to B6, the binding result was “no binding (tested: not given)”.

With B7, the binding entry is listed as “no binding (tested: not given)”.

Take B8: the binding result is “no binding (tested: not given)”.

Turning to B9, the binding entry is reported as “no binding (tested: not given)”.

As to B10, the binding entry was “no binding (tested: not given)”.

B11: the binding entry is reported as “no binding (tested: not given)”.

For another assay, the target named is mIg2. Described as above.
With B1, the binding entry is recorded as “no binding (tested: not given)”.

Take B2: the binding entry is on record as “no binding (tested: not given)”.

With B3, the binding result is “no binding (tested: not given)”.

Take B4: the binding result is given as “no binding (tested: not given)”.
